Drawing on paper PMC4731418, this text covers binding for two substances.

Chains of the proteins cited; added tags and fusions are not shown. Lines headed by an entry give the natural chain unless they say otherwise; changes in a name come on top.
UniProt Q5EG47: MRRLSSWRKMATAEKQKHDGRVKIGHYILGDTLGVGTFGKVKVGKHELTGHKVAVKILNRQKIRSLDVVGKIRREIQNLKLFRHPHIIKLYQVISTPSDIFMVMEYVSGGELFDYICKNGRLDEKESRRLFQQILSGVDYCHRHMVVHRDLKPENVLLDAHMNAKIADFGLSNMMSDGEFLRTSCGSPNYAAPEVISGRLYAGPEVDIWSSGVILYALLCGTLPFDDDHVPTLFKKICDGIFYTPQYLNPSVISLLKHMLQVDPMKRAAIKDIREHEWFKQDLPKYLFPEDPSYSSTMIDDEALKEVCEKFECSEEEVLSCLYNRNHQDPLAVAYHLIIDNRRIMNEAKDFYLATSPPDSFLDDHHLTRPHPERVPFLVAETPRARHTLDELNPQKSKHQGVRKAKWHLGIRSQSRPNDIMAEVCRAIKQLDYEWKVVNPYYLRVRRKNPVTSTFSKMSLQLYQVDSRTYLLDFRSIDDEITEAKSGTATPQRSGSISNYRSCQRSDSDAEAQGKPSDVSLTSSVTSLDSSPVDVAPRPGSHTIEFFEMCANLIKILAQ
UniProt Q8VDP4: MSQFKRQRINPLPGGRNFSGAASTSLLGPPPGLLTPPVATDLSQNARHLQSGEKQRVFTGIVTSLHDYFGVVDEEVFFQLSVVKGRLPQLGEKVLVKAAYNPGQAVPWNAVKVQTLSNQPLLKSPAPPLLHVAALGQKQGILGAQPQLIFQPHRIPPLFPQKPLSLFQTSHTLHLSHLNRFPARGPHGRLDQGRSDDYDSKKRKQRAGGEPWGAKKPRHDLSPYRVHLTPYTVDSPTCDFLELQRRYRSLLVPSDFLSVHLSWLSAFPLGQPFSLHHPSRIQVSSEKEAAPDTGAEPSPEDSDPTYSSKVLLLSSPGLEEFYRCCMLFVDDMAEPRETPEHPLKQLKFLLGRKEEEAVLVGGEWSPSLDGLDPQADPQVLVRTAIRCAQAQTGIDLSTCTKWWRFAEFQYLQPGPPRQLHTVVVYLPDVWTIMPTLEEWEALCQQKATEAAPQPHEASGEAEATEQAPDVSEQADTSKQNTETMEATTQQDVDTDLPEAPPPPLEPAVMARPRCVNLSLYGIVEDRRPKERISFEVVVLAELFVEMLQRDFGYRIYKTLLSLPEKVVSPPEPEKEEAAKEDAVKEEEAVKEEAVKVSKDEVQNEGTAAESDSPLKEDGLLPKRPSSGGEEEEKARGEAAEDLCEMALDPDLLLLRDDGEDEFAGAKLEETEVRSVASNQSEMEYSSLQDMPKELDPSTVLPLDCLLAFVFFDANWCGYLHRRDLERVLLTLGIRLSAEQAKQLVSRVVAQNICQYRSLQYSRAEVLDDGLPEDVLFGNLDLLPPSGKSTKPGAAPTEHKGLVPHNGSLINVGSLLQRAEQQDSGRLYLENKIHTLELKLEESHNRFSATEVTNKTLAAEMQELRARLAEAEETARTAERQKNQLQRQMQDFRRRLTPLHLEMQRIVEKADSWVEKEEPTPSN
UniProt P42859: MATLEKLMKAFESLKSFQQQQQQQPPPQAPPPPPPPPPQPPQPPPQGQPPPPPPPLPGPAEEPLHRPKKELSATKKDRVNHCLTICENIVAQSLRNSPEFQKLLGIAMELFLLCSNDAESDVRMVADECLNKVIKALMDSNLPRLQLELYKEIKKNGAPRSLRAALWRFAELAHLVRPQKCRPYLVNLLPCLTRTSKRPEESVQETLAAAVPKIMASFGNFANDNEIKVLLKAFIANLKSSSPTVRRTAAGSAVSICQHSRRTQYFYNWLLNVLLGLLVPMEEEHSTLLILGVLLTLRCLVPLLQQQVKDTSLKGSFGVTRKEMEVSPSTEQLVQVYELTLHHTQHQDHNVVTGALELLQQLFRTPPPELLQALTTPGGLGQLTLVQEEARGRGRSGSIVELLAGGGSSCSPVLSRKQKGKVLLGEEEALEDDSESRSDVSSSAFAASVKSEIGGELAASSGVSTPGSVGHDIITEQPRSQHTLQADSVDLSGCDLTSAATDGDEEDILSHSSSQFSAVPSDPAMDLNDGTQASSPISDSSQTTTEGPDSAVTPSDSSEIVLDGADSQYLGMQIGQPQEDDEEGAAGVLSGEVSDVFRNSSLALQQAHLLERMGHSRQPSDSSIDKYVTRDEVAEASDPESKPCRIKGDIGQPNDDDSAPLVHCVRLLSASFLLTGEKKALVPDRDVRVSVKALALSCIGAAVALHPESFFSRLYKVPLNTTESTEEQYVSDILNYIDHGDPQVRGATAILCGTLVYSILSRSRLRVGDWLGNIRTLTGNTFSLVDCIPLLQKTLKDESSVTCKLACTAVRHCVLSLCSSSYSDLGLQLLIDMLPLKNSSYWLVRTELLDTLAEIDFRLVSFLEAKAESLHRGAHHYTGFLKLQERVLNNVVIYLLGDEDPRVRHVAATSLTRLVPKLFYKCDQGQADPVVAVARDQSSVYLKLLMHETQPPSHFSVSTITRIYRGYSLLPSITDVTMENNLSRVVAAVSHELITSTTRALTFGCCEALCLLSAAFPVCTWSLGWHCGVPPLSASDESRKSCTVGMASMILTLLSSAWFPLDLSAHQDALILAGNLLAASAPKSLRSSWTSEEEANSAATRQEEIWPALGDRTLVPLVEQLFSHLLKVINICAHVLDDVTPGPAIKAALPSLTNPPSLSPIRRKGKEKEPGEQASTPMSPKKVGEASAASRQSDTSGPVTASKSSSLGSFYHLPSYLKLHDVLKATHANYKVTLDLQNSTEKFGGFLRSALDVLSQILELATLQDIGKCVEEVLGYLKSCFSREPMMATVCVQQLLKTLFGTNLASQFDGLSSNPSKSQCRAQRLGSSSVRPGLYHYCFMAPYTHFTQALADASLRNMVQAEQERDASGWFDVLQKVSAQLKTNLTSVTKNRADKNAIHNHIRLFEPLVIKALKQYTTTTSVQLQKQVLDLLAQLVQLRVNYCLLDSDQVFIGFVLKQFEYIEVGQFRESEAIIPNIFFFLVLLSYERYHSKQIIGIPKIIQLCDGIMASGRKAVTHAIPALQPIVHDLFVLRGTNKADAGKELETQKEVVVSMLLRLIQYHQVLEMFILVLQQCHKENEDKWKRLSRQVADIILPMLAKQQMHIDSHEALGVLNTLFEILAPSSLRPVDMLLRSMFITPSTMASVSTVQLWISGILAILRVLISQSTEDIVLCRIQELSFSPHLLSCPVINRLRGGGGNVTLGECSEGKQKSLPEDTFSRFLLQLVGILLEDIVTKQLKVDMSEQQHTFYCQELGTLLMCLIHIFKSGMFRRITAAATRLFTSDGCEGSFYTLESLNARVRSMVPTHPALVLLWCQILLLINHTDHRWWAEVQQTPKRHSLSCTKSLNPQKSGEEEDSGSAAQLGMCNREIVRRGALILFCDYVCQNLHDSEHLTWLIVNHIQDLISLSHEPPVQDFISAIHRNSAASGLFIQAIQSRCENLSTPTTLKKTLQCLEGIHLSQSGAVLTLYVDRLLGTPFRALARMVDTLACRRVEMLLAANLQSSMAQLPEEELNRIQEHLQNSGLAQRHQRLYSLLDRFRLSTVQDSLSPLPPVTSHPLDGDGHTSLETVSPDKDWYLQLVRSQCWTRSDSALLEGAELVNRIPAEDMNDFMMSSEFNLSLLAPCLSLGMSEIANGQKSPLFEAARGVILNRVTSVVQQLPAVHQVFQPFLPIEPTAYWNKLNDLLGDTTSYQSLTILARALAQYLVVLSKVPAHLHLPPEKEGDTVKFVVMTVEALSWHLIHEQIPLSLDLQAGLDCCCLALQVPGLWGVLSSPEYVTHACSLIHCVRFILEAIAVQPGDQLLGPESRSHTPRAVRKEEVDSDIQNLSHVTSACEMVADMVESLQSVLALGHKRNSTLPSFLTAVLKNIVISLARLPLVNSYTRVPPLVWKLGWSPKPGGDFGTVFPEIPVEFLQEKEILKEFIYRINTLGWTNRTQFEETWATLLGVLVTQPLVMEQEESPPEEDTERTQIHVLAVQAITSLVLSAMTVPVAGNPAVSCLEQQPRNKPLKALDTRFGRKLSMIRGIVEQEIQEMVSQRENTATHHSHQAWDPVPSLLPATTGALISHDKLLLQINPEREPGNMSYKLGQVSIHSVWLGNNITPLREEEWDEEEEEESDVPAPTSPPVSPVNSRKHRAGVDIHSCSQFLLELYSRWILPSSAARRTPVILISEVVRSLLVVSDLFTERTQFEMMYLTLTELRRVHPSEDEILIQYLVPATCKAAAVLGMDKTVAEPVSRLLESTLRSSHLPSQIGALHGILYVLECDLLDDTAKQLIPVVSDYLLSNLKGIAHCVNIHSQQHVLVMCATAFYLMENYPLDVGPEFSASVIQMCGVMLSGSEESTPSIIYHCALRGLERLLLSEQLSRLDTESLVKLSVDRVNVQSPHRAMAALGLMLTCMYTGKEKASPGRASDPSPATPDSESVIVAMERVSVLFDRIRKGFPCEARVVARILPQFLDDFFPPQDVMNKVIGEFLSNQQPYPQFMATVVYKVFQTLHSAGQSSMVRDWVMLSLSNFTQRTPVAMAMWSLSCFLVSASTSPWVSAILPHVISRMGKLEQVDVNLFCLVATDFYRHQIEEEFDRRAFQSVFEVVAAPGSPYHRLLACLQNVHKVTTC

Test [1] deals with AMP-activated protein kinase-α1 (AMPK-α1) (mouse (endogenous in mouse brain)) (UniProt Q5EG47). The test can be described thus: co-IP; AMPK-α1 immunoprecipitated (1 μg antibody, 90 min, 4°C, protein G Dynabeads) from striatum and cerebellum lysates of 9-week R6/2, 22-month HdhQ150 homozygous and WT littermate mice in NETN buffer; western blot for DBC1. On the technique in general: In western blotting, separated proteins are transferred to a membrane and probed.

The target of test [2] is T1, SIRT1 (mouse (endogenous in mouse brain)) (UniProt Q923E4).
T1 sequence: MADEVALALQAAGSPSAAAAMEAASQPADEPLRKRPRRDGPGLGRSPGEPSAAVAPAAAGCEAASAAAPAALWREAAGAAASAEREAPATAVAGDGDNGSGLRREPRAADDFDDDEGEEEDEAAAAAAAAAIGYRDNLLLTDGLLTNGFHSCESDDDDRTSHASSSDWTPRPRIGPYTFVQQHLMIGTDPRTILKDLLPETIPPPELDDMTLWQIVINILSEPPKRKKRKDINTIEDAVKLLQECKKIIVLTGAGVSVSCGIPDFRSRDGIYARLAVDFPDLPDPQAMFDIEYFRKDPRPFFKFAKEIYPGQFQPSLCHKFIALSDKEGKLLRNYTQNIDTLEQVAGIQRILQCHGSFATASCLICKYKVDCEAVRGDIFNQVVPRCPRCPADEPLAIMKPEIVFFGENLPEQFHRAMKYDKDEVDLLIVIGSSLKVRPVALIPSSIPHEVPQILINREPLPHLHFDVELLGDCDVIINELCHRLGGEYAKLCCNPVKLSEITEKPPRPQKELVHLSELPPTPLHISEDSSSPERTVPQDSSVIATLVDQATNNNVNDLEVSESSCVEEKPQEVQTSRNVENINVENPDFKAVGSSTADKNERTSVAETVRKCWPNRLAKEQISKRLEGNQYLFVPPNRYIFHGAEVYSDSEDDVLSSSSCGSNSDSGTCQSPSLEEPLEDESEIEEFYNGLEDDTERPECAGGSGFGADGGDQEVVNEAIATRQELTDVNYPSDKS
The test can be described thus: co-IP; SIRT1 immunoprecipitated (1 μg antibody, 4 h, 4°C, protein G Dynabeads) from half brain lysates of R6/2 (9 weeks), HdhQ150 homozygous (22 months) and WT littermate mice in NETN buffer (20 mM Tris-HCl pH 8, 100 mM NaCl, 1 mM EDTA, 0.5% NP-40); western blot for HTT.

Results are given in words; binding and its absence hold for the method and conditions named. In cells and extracts the contact can be indirect. Some binding calls cover weakened binding; strength is not graded here.

Consider “DBC1 (deleted in breast cancer 1) (from UniProt Q8VDP4 1-922)”, for which the binding result in test [1] is “binds”.

As for “huntingtin protein (HTT), endogenous wild-type mouse (from UniProt P42859 1-3119)”, in test [2], the binding entry is reported as “binds”.
